Among the data in ChEMBL document CHEMBL1149390, “Potent CYP19 (aromatase) 1-[(benzofuran-2-yl)(phenylmethyl)pyridine, -imidazole, and -triazole inhibitors: synthesis and biological evaluation” (J Med Chem, 2006) are selectivity ratio values, retold here.

In this data set the target is T1, Aromatase (Homo sapiens, UniProt P11511).
T1 sequence (P11511 whole entry): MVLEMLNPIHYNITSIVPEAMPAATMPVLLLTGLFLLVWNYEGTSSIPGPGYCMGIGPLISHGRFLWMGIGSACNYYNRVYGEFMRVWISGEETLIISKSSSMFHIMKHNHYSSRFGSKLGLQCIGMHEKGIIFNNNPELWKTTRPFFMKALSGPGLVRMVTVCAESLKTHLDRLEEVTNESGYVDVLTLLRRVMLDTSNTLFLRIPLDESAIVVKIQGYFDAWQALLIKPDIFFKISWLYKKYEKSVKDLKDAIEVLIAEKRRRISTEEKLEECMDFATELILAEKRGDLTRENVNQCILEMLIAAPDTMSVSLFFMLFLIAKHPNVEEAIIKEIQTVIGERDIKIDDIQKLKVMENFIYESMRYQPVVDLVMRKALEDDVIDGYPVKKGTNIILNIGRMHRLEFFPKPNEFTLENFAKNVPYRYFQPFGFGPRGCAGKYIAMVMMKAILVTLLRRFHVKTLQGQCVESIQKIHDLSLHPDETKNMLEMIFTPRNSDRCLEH
The data set is described as follows: in vitro.

`CC(C)(C#N)c1cc(Cn2cncn2)cc(C(C)(C)C#N)c1` [ANASTROZOLE]: the selectivity ratio was above 333.
